{"source": "patent US20250304918A1", "binders": {"B1": {"name": "CACNG1 mAb #4 (antibody, V domains shown)", "VH": "QVQLQESGPGLVKPSETLSLTCTVSGDSINNYYWTWLRQPPGKGLEWIGYIYYSGSANYNPSLKSRVTISVDTSKNQFSLKLNSVTAADTAVYYCARGAVKYFRHWGQGTLVTVSS", "VL": "EIVLTQSPGTLSLSPGERATLSCRASQTINHNNLAWYQQRPGQAPRLLIYGASNRATAIPDRFSGSGSGTDFTLTISRLEPEDFEVYSCQQYGSLPLTFGGGTKVEIK"}, "B2": {"name": "CACNG1 mAb #2 (antibody, V domains shown)", "VH": "QVQLQQWGAGLLKPSATLSRTCAVYGGSFSGYYWNWIRQSPGKGLEWIGEILHSGRTNYNPSLKSRVTISVDTSKNQFSLKLTSVTAADTAVYYCAGRIAARHGWFDPWGQGTLVTVSS", "VL": "DIQMTQSPSSVSTSVGDRVTISCRASQDIRKWLAWYQQKPGKAPKLLIYATSSLQSGVPSRFSGSGSGTDFTLTISSLQPEDFATYFCQQANSFPFTFGQGTKLEIK"}, "B3": {"name": "CACNG1 mAb #3 (antibody, V domains shown)", "VH": "QVQLVESGGGVVQPGRSLRLSCAASGFTFSTYGMHWVRQAPGKGLEWVAVIWHDGSDKYYVDSVKGRFSIARDNSKNTLYLQMNSLRVEDTGIYYCARRGIRGTVFDHWGLGTLVTVSS", "VL": "DIQMTQSPSTLSASVGDRVTLTCRASQSISNKLAWYQQKPGKAPNLLIYKASNLESGVPSRFSGSGSGTEFTLTISSLQPDDFATYYCQQYNSYSWTFGQGTKVEIK"}}, "target": "monkey CACNG1 (monkey)", "test": "no binding assay described; definition of the label", "note": "Results are given in words; binding and its absence hold for the method and conditions named. A result given as binding can be weak or reduced; the word gives no strength.", "data": [{"binder": "B1", "values": [{"measurement": "binding", "result": "binds"}]}, {"binder": "B2", "values": [{"measurement": "binding", "result": "binds"}]}, {"binder": "B3", "values": [{"measurement": "binding", "result": "binds"}]}]}
